The other results are listed elsewhere or left out. Further columns of the screen follow, without active or inactive calls. Compounds called inactive in the main read-out are mostly missing here. The note in brackets gives the kind of curve behind each potency; many fits are weak.

The test is described as follows: qHTS Assay for Lipid Storage Modulators in Drosophila S3 Cells.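 As to cell number change: cells counted by Cell Tracker Red CMTPX staining in the red channel.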 The conditions noted are these: BODIPY lipid droplet fluorescence, 18-24 h; for cell number change: measured here: cell count max response, cells fed with added oleic acid. The gist of the method: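 Drosophila S3 cells loaded with oleic acid (400 uM, as added) and compounds at several concentrations; lipid droplets imaged by 488-nm laser-scanning cytometry, 500–530 nm intensity and object ratio to cell channel. Percent activity normalized to 20 uM Triacsin C.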
On the technique in general: qHTS replaces the single test concentration by a dilution series.

[1] abbreviates: measured here: cell number channel AC50, cells fed with added oleic acid.
The mark [2] stands for this setting: measured here: lipid fluorescence (Fed channel) AC50, cells fed with added oleic acid.

By AC50 is commonly meant the concentration giving half of the maximal activity seen. For the compound `COC(=O)c1ccccc1NC(=O)NCc1ccc2c(c1)OCO2`, the cell number change was 117%. Further, the AC50 under setting [1] is 16.4 µM [rising, partial curve, poor fit]. The AC50 under setting [2] is 16.4 µM [rising, partial curve].

For `CCN(CC(=O)Nc1cccc(OC)c1)CC(=O)Nc1ccccc1C`, the cell number change is -1.42%.

Take `CC1CCCCC1NC(=O)c1cccc(N2C(=O)C3C4C=CC(C4)C3C2=O)c1` (configuration not stated): the AC50 under setting [2] was 2.91 µM [rising, partial curve].

Consider `O=C(Nc1ccc2c(c1)CCC2)c1cccc(F)c1`, for which the cell number change was 55.4%. The half-maximal activity concentration (AC50) under setting [1] was 2.06 µM [falling, partial curve]. Moreover, the AC50 under setting [2] is 6.51 µM [falling, single point].

Take `O=C1C2C3C=CC(C4CC34)C2C(=O)N1/N=C/c1ccc(-c2ccc([N+](=O)[O-])cc2)o1` (configuration not stated): the cell number change came out at 0.319%. Also, the AC50 under setting [1] was 5.17 µM [falling, single point]. Under setting [2], the half-maximal activity concentration (AC50) is 3.26 µM [falling, single point].

Regarding `COc1ccccc1-c1nc(N)n[nH]1`, the cell number change came to 17.1%. Further, the AC50 under setting [2] is 0.0461 µM [rising, full curve, poor fit].

On to `COc1ccc(N(CC(=O)NN=C2CCCC2)S(=O)(=O)c2ccccc2)cc1`, for which the cell number change is 22.4%. The AC50 under setting [2] is 2.91 µM [falling, single point].

Regarding `S=c1nc(Cc2ccc(Cl)cc2)[nH]c2ccccc12`, under setting [2], the AC50 is 1.64 µM [falling, partial curve].

For the compound `O=C(CN1CCOCC1)N/N=C/C(Br)=C\c1ccccc1`, the cell number change is -7.69%.

On to `COc1ccc(C(=O)N(C)Cc2ccc(C)o2)cc1OC1CCN(C(C)C)CC1`, for which the cell number change was determined as 24.3%.

For the compound `O=C(C1CCN(S(=O)(=O)c2cccnc2)CC1)N1CCCCC1`, the cell number change was determined as 3.44%. Moreover, the AC50 under setting [2] is 6.51 µM [falling, partial curve, poor fit].

Take `COc1ccc(Cl)cc1N(CC(=O)N1CCCC1)S(C)(=O)=O`: the cell number change was found to be 43.9%. In addition, the AC50 under setting [1] is 1.46 µM [rising, full curve].

As for `Cc1c(C(N)=O)sc2ncn(CC(=O)OC(C)C)c(=O)c12`, the cell number change was -10.3%. The AC50 under setting [1] was 0.00461 µM [falling, full curve, poor fit].

In the case of `Cc1ccc(C(=O)CSc2n[nH]c(C)n2)cc1`, the cell number change is 3.81%.

For the compound `COC(=O)Cc1sc(-c2ccccn2)nc1-c1ccccc1`, the cell number change stood at 31%. The AC50 under setting [1] was 10.3 µM [rising, single point].

For the compound `CC(C)Oc1ccc(C(=O)NC2(C(F)(F)F)N=C3SCCN3C2=O)cc1` (configuration not stated), the cell number change is -30.6%. The AC50 under setting [1] was 3.66 µM [falling, full curve]. The AC50 under setting [2] was 3.26 µM [falling, single point].

For `COc1ccc(NC(=O)CN(C)C(=O)CC2CCCC2)cc1`, the cell number change was -54.2%. Moreover, the AC50 under setting [1] is 29.1 µM [falling, single point].

The values above are taken from PubChem BioAssay AID2685 (National Center for Advancing Translational Sciences (NCATS), 2010).
